Source: patent publication US12681015B2, “Methods for predicting patient response to DMARDs” (Queen Mary University of London, priority 2019, dated 2026)
Some results come without the dose or concentration used. Some values come without a unit; they compare only within their column.

experiment: Plasma lipid mediator profiling in RA patients 6 months after DMARD treatment initiation; type: in vivo, human; settings: 6 months after treatment initiation, non-responders

Compound | Peripheral blood lipid mediator profile after 6 months of DMARD treatment, DMARD Non-Responders, Mean ± SEM
CCCCC[C@H](O)[C@H](O)/C=C/C=C/C=C\C=C\[C@@H](O)CCCC(=O)O [LXB4] | 0.36 ± 0.23
CC/C=C\C/C=C\C[C@H](O)[C@@H](/C=C/C=C/C=C\C/C=C\CCC(=O)O)SC[C@H](NC(=O)CC[C@H](N)C(=O)O)C(=O)NCC(=O)O [MCTR1] | 0.00 ± 0.00
CC/C=C\C/C=C\C[C@H](O)[C@@H](/C=C/C=C/C=C\C/C=C\CCC(=O)O)SC[C@H](N)C(=O)NCC(=O)O [MCTR2] | 0.28 ± 0.19
CC/C=C\C/C=C\C[C@H](O)[C@@H](/C=C/C=C/C=C\C/C=C\CCC(=O)O)SC[C@H](N)C(=O)O [MCTR3] | 4.71 ± 1.61
CC/C=C\C/C=C\C[C@H](O)\C=C/C=C/C=C/[C@H](O)C/C=C\CCC(=O)O [MaR1] | 5.83 ± 1.30
CC/C=C\C/C=C\C[C@H](O)\C=C/C=C/C=C/[C@H](O)CCCCCC(=O)O [MaR1n-3 DPA] | 0.10 ± 0.07
CC/C=C\C/C=C\C[C@H](O)[C@H](O)/C=C/C=C/C=C\C/C=C\CCC(=O)O [MaR2] | 0.00 ± 0.00
CC/C=C\C[C@H](O)[C@@H](/C=C/C=C/C=C\C/C=C\C/C=C\CCC(=O)O)SC[C@H](NC(=O)CC[C@H](N)C(=O)O)C(=O)NCC(=O)O [PCTR1] | 0.00 ± 0.00
CC/C=C\C[C@H](O)[C@@H](/C=C/C=C/C=C\C/C=C\C/C=C\CCC(=O)O)SC[C@H](N)C(=O)NCC(=O)O [PCTR2] | 0.05 ± 0.05
CC/C=C\C[C@H](O)[C@@H](/C=C/C=C/C=C\C/C=C\C/C=C\CCC(=O)O)SC[C@H](N)C(=O)O [PCTR3] | 0.00 ± 0.00
CC/C=C\C[C@H](O)\C=C/C=C/C=C/[C@H](O)C/C=C\C/C=C\CCC(=O)O [PD1] | 0.78 ± 0.27
CC/C=C\C[C@H](O)\C=C/C=C/C=C/[C@H](O)C/C=C\CCCCCC(=O)O [PD1n-3 DPA] | 0.34 ± 0.11
CC/C=C\C[C@H](O)/C=C/C=C\C=C\[C@@H](O)C/C=C\C/C=C\CCC(=O)O [PDX] | 9.23 ± 3.38
CCCCC[C@H](O)/C=C/[C@H]1C(=O)C[C@H](O)[C@@H]1C/C=C\CCCC(=O)O [PGD2] | 12.26 ± 5.93
CCCCC[C@H](O)/C=C/[C@H]1[C@H](O)CC(=O)[C@@H]1C/C=C\CCCC(=O)O [PGE2] | 11.29 ± 4.59
CCCCC[C@H](O)/C=C/[C@@H]1[C@@H](C/C=C\CCCC(=O)O)[C@@H](O)C[C@H]1O [PGF2a] | 13.45 ± 3.42
CC/C=C\C[C@H](O)/C=C/C=C\C=C\C=C\[C@@H](O)[C@@H](O)C/C=C\CCC(=O)O [RvD1] | 0.60 ± 0.19
CC/C=C\C[C@H](O)/C=C/C=CC=CC=CC(O)[C@@H](O)CCCCCC(=O)O (stereo partly shown) [RvD1n-3 DPA] | 1.02 ± 0.27
CC/C=C\C[C@H](O)[C@H](O)/C=C/C=C/C=C\C=C\[C@@H](O)C/C=C\CCC(=O)O [RvD2] | 0.18 ± 0.13
CC/C=C\CC(O)C(O)/C=C/C=CC=CC=CC(O)CCCCCC(=O)O (stereo not shown) [RvD2n-3 DPA] | 1.68 ± 0.58

same assay, conditions: 6 months after treatment initiation, responders

Compound | Peripheral blood lipid mediator profile after 6 months of DMARD treatment, DMARD Responders, Mean ± SEM
CCCCC[C@H](O)[C@H](O)/C=C/C=C/C=C\C=C\[C@@H](O)CCCC(=O)O [LXB4] | 0.17 ± 0.08
CC/C=C\C/C=C\C[C@H](O)[C@@H](/C=C/C=C/C=C\C/C=C\CCC(=O)O)SC[C@H](NC(=O)CC[C@H](N)C(=O)O)C(=O)NCC(=O)O [MCTR1] | 0.00 ± 0.00
CC/C=C\C/C=C\C[C@H](O)[C@@H](/C=C/C=C/C=C\C/C=C\CCC(=O)O)SC[C@H](N)C(=O)NCC(=O)O [MCTR2] | 0.97 ± 0.23
CC/C=C\C/C=C\C[C@H](O)[C@@H](/C=C/C=C/C=C\C/C=C\CCC(=O)O)SC[C@H](N)C(=O)O [MCTR3] | 3.32 ± 0.98
CC/C=C\C/C=C\C[C@H](O)\C=C/C=C/C=C/[C@H](O)C/C=C\CCC(=O)O [MaR1] | 6.82 ± 1.39
CC/C=C\C/C=C\C[C@H](O)\C=C/C=C/C=C/[C@H](O)CCCCCC(=O)O [MaR1n-3 DPA] | 0.02 ± 0.02
CC/C=C\C/C=C\C[C@H](O)[C@H](O)/C=C/C=C/C=C\C/C=C\CCC(=O)O [MaR2] | 0.64 ± 0.38
CC/C=C\C[C@H](O)[C@@H](/C=C/C=C/C=C\C/C=C\C/C=C\CCC(=O)O)SC[C@H](NC(=O)CC[C@H](N)C(=O)O)C(=O)NCC(=O)O [PCTR1] | 2.25 ± 1.59
CC/C=C\C[C@H](O)[C@@H](/C=C/C=C/C=C\C/C=C\C/C=C\CCC(=O)O)SC[C@H](N)C(=O)NCC(=O)O [PCTR2] | 0.39 ± 0.14
CC/C=C\C[C@H](O)[C@@H](/C=C/C=C/C=C\C/C=C\C/C=C\CCC(=O)O)SC[C@H](N)C(=O)O [PCTR3] | 0.00 ± 0.00
CC/C=C\C[C@H](O)\C=C/C=C/C=C/[C@H](O)C/C=C\C/C=C\CCC(=O)O [PD1] | 1.14 ± 0.19
CC/C=C\C[C@H](O)\C=C/C=C/C=C/[C@H](O)C/C=C\CCCCCC(=O)O [PD1n-3 DPA] | 0.37 ± 0.08
CC/C=C\C[C@H](O)/C=C/C=C\C=C\[C@@H](O)C/C=C\C/C=C\CCC(=O)O [PDX] | 0.92 ± 0.36
CCCCC[C@H](O)/C=C/[C@H]1C(=O)C[C@H](O)[C@@H]1C/C=C\CCCC(=O)O [PGD2] | 7.48 ± 1.87
CCCCC[C@H](O)/C=C/[C@H]1[C@H](O)CC(=O)[C@@H]1C/C=C\CCCC(=O)O [PGE2] | 11.10 ± 3.55
CCCCC[C@H](O)/C=C/[C@@H]1[C@@H](C/C=C\CCCC(=O)O)[C@@H](O)C[C@H]1O [PGF2a] | 11.24 ± 2.30
CC/C=C\C[C@H](O)/C=C/C=C\C=C\C=C\[C@@H](O)[C@@H](O)C/C=C\CCC(=O)O [RvD1] | 0.09 ± 0.06
CC/C=C\C[C@H](O)/C=C/C=CC=CC=CC(O)[C@@H](O)CCCCCC(=O)O (stereo partly shown) [RvD1n-3 DPA] | 1.19 ± 0.31
CC/C=C\C[C@H](O)[C@H](O)/C=C/C=C/C=C\C=C\[C@@H](O)C/C=C\CCC(=O)O [RvD2] | 0.97 ± 0.44
CC/C=C\CC(O)C(O)/C=C/C=CC=CC=CC(O)CCCCCC(=O)O (stereo not shown) [RvD2n-3 DPA] | 1.54 ± 0.27
